Measurements reported in doi:10.1101/2025.04.06.647459.
Read-outs that look alike come from different tables or passages of the source. These are yes or no findings as the source states them, for the method shown. Binding seen in cells or lysates may run through a third protein. Some binding calls cover weakened binding; strength is not graded here. For some of these results: Where a sequence is shown, tags or fusion partners need not be part of it.

Protein sequences, listed by entry. Tags and fused reporters are not part of them.
UniProt P63168: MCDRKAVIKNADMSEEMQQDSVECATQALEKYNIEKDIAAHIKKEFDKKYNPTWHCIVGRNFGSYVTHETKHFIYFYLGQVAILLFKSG
UniProt P62259: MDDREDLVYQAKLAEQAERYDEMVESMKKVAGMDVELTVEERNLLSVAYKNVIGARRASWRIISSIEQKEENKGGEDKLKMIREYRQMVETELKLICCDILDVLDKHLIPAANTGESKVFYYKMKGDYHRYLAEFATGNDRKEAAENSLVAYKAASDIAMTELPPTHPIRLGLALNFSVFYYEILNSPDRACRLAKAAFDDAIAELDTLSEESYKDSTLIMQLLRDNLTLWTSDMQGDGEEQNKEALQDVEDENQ

T1: EML3, untagged, expressed from mouse cDNA in HEK293T cells (mouse) (UniProt Q8VC03)
T1 sequence: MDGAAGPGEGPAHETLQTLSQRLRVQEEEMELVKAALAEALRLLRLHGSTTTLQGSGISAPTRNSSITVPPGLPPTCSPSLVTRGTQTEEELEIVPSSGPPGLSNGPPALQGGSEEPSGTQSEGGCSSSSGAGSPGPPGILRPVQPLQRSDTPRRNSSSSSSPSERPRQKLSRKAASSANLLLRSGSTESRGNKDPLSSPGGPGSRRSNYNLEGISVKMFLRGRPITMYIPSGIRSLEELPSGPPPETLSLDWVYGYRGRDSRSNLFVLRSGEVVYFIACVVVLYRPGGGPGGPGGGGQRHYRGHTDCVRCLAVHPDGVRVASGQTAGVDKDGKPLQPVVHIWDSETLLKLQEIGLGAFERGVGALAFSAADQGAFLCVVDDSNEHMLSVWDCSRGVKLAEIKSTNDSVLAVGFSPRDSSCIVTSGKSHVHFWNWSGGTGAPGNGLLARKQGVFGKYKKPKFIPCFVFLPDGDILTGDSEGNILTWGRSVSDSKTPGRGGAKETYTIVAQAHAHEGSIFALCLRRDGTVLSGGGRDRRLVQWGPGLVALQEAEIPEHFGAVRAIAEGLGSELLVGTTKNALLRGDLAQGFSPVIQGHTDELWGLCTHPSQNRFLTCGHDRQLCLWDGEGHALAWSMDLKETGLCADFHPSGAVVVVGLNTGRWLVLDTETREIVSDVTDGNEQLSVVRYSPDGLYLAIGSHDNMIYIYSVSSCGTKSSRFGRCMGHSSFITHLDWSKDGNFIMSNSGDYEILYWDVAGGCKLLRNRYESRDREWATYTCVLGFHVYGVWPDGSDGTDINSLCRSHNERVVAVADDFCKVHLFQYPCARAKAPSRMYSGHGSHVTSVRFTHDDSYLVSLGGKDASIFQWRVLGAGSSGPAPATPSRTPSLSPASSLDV

B1: 14-3-3 gamma (YWHAG), expressed in transfected cells (protein, UniProt P61982 1-247)
chain: MVDREQLVQKARLAEQAERYDDMAAAMKNVTELNEPLSNEERNLLSVAYKNVVGARRSSWRVISSIEQKTSADGNEKKIEMVRAYREKIEKELEAVCQDVLSLLDNYLIKNCSETQYESKVFYLKMKGDYYRYLAEVATGEKRATVVESSEKAYSEAHEISKEHMQPTHPIRLGLALNYSVFYYEIQNAPEQACHLAKTAFDDAIAELDTLNEDSYKDSTLIMQLLRDNLTLWTSDQQDDDGGEGNN

Experiments:
Assay in all cases: co-IP
[1] = target: T1, EML3, untagged, expressed from mouse cDNA in HEK293T cells (mouse)
[2] = target: EML3 TQT86AAA mutant, expressed from mouse cDNA in HEK293T cells (mouse) (UniProt Q8VC03)
[3] = target: T1, EML3, untagged, expressed from mouse cDNA in HEK293T cells (mouse); remark: listed apart in the source

Molecule	binding [1]	binding [2]	binding [3]
DYNLL1-FLAG, expressed from mouse cDNA in HEK293T cells (from UniProt P63168 1-89)	binds	no binding	
YWHAE-FLAG (14-3-3 epsilon), expressed from mouse cDNA in HEK293T cells (from UniProt P62259 1-255)	binds		
B1			binds
